From paper PMC8739261
No constants are given. Whether binding was seen depends on the method and setting. Some entries that bind do so weakly or less than the wild type.

Target: T1, CD166 (human (endogenous in human cell lines and monocytes)) (UniProt Q13740)
T1 sequence: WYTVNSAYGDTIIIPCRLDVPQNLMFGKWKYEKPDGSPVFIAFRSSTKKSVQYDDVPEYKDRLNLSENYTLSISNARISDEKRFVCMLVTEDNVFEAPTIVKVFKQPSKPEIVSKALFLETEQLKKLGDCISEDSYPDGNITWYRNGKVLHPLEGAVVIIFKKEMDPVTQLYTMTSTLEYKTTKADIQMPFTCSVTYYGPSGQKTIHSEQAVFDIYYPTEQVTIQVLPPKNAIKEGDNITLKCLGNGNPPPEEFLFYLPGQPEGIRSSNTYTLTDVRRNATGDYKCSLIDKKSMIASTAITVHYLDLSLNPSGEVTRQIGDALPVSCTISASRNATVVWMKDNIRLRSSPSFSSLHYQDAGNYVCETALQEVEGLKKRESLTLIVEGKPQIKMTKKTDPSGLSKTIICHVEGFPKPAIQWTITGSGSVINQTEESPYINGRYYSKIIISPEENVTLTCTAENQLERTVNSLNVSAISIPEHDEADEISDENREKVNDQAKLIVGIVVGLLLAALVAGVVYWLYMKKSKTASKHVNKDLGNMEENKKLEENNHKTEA
Test: flow cytometry on cells; 2 x 10^5 cells of a panel of human cell lines (Caco-2, Hep G2, Raji, K562, HL-60, THP-1, HeLa, E6.1) incubated with 3 ug recombinant sCD6 in binding medium (TBS, 1% BSA, 5 mM Ca2+) for 1 h at 4 C; detected with anti-HIS antibody and Alexa Fluor 647 anti-mouse antibody; only the binder purified

B1: recombinant soluble extracellular CD6 (sCD6) (domain or fragment, UniProt P30203 25-398)
chain: DQLNTSSAESELWEPGERLPVRLTNGSSSCSGTVEVRLEASWEPACGALWDSRAAEAVCRALGCGGAEAASQLAPPTPELPPPPAAGNTSVAANATLAGAPALLCSGAEWRLCEVVEHACRSDGRRARVTCAENRALRLVDGGGACAGRVEMLEHGEWGSVCDDTWDLEDAHVVCRQLGCGWAVQALPGLHFTPGRGPIHRDQVNCSGAEAYLWDCPGLPGQHYCGHKEDAGAVCSEHQSWRLTGGADRCEGQVEVHFRGVWNTVCDSEWYPSEAKVLCQSLGCGTAVERPKGLPHSLSGRMYYSCNGEELTLSNCSWRFNNSNLCSQSLAARVLCSASRSLHNLSTPEVPASVQTVTIESSVTVKIENKESRE
How did the binding turn out when B1 was run?
Its binding is “binds”.
